Experimental data: the supplement of paper PMC11006884
The entries are a selection whose mix differs from that of the whole data set.

Protein sequences, listed by entry. Tags and fused reporters are not part of them. Lines headed by an entry give the natural chain unless they say otherwise; changes in a name come on top.
UniProt P78527, whole entry, looked up: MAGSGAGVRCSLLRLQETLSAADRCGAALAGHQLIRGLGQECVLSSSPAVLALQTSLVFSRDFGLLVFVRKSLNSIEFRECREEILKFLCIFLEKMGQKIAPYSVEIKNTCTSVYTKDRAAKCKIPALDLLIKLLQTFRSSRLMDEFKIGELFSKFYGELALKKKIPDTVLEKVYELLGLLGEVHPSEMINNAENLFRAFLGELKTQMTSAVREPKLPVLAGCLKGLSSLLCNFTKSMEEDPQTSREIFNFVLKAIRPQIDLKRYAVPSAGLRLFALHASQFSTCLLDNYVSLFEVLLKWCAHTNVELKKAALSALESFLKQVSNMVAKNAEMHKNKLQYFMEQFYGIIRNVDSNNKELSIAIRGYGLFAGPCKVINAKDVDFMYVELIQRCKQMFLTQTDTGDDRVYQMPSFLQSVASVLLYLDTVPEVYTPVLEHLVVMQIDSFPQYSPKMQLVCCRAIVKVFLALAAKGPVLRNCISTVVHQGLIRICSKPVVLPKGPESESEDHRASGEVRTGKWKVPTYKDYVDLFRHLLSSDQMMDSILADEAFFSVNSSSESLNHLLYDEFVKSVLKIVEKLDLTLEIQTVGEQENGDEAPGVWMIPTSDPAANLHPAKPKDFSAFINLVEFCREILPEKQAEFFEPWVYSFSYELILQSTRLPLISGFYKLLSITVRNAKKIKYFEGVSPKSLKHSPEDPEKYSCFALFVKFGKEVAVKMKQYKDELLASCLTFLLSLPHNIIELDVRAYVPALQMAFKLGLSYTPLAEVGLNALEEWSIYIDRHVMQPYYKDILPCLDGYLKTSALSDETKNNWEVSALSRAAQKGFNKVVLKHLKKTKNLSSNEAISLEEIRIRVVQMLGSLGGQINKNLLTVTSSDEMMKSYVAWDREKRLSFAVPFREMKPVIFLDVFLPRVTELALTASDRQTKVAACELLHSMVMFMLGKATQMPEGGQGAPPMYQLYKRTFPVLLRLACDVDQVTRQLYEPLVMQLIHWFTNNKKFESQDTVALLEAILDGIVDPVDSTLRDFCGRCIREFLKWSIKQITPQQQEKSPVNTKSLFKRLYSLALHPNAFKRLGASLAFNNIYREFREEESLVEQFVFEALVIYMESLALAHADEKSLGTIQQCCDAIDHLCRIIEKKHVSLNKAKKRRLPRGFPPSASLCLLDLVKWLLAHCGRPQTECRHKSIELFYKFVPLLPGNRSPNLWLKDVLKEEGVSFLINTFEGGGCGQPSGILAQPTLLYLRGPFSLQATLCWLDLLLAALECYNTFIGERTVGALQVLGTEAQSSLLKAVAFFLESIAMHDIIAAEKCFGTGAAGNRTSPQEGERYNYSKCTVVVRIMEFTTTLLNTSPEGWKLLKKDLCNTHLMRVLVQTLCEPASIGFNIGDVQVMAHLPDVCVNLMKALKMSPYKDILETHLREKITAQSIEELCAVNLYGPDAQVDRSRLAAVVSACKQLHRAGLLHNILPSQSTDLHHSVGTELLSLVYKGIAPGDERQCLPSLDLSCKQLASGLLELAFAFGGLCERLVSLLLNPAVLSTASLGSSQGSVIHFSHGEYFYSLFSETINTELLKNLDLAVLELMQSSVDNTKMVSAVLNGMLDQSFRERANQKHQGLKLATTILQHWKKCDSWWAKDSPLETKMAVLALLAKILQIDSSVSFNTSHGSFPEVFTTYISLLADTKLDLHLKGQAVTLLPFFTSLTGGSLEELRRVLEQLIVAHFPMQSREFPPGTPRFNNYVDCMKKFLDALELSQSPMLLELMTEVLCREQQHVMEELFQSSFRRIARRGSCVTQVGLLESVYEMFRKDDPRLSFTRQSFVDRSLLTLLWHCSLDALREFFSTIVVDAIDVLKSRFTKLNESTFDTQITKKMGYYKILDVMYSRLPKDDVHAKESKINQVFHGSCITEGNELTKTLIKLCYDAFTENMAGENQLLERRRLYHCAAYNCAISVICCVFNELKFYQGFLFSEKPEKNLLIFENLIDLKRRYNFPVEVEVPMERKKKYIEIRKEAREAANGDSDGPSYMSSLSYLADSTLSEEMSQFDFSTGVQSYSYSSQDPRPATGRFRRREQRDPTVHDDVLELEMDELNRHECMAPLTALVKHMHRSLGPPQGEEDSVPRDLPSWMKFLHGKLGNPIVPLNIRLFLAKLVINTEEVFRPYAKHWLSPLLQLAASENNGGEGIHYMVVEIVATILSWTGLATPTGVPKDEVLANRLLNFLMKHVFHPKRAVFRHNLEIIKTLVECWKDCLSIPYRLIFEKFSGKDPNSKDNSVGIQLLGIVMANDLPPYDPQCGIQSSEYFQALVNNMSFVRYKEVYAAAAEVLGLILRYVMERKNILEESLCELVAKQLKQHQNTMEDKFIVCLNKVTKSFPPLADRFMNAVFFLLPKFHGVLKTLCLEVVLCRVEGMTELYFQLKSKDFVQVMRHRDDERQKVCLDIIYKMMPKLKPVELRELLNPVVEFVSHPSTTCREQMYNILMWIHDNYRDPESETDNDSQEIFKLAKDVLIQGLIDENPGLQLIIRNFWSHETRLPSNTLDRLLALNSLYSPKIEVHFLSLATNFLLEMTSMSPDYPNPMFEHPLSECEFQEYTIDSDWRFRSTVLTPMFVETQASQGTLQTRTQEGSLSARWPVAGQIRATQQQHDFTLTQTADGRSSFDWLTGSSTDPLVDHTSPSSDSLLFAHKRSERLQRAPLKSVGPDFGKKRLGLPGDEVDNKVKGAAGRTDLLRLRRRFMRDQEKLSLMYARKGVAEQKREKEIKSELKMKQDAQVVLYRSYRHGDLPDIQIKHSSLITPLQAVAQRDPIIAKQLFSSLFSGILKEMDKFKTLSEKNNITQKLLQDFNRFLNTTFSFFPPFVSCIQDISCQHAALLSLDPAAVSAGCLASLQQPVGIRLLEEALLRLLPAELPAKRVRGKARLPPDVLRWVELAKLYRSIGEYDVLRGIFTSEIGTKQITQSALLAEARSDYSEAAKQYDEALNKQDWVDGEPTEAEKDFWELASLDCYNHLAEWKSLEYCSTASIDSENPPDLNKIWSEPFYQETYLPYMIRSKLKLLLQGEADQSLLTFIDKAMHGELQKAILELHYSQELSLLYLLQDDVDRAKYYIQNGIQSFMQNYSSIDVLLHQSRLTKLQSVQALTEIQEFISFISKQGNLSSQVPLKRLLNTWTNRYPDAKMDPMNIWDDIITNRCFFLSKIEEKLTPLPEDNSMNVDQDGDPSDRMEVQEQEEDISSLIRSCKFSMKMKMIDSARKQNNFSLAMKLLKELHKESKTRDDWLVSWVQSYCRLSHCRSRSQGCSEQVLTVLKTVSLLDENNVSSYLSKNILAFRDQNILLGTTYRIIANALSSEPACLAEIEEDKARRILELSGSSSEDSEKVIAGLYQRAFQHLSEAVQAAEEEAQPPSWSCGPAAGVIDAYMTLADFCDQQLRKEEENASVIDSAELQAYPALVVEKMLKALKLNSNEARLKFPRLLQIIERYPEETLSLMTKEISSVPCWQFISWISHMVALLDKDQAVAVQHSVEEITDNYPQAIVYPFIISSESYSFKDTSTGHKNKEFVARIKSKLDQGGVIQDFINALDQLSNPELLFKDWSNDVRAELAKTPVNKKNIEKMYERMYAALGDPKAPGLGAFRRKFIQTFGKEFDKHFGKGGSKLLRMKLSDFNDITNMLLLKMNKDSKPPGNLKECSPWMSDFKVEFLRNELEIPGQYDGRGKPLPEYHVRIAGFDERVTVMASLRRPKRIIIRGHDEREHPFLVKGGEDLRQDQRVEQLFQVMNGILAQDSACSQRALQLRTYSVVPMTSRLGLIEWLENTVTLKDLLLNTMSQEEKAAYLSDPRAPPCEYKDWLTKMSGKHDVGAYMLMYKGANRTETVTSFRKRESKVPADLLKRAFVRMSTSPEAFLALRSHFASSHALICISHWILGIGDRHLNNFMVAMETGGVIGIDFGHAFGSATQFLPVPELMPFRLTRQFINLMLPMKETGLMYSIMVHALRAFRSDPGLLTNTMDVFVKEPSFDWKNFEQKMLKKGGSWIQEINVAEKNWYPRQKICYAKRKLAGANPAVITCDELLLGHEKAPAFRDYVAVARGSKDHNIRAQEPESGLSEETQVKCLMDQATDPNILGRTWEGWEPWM
UniProt P67936, whole entry, looked up: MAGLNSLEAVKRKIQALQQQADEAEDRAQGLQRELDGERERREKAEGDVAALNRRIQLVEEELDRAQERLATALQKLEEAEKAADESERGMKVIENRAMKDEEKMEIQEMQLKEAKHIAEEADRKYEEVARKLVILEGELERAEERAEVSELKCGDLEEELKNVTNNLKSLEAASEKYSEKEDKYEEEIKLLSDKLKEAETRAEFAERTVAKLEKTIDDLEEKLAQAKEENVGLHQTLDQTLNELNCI
UniProt P68104, whole entry, looked up: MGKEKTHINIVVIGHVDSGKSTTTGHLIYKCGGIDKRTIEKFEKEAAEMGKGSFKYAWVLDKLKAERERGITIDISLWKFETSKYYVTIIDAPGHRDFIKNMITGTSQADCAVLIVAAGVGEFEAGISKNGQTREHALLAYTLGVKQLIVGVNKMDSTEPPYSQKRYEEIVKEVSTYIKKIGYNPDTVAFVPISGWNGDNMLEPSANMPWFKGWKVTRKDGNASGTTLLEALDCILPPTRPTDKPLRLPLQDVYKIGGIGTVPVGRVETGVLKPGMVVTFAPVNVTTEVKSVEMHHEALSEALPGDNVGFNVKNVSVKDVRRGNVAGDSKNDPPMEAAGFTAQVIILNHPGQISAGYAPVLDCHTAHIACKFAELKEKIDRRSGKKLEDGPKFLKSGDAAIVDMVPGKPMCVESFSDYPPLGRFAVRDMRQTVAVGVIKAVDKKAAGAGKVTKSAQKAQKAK
UniProt Q00610: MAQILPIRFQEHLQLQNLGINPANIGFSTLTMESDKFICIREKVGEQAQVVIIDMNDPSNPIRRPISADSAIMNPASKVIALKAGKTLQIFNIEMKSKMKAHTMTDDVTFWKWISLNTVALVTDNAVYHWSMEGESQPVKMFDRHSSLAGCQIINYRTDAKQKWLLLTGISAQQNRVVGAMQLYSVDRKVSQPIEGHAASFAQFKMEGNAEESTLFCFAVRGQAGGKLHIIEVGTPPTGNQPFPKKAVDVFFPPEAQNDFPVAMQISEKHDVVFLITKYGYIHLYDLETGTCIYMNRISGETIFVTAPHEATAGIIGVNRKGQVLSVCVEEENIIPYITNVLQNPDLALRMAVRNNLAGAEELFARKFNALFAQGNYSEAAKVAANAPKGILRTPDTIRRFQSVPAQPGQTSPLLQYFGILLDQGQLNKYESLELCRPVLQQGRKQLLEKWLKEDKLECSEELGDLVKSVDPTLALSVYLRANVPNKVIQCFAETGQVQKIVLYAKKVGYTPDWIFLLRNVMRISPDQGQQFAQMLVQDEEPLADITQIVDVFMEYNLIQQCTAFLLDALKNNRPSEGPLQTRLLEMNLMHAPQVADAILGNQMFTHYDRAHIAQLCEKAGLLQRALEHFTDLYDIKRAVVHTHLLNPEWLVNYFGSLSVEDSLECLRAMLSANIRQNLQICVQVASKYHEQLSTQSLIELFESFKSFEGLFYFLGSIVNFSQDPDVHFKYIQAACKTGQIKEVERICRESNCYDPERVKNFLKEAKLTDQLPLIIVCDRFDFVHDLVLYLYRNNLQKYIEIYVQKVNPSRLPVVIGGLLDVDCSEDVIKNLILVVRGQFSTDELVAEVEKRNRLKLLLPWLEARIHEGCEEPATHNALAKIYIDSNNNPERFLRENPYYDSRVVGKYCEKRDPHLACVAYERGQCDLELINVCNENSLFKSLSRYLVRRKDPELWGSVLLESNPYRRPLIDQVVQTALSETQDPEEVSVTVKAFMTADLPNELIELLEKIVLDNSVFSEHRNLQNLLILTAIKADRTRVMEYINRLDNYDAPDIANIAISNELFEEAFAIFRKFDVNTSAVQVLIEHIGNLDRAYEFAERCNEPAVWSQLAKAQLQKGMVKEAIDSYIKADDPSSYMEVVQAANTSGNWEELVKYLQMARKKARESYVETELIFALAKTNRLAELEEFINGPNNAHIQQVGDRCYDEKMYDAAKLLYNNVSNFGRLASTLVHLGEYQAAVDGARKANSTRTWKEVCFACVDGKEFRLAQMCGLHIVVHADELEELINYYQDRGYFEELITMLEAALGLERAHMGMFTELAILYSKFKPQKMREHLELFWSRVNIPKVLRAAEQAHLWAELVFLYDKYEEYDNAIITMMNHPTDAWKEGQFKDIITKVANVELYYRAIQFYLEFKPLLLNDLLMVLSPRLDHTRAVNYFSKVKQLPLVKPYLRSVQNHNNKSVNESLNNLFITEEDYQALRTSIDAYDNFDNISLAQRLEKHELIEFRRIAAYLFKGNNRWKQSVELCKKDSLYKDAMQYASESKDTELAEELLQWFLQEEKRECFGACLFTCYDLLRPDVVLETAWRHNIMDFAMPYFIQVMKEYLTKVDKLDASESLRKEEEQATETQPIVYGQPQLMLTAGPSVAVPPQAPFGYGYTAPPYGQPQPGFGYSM

Compound: COC(=O)C#Cc1ccccc1 [methyl 3-phenylpropiolate]
Test: log2 ratio of iodoacetamide-alkyne labeling of the cysteine site, DMSO over compound (competition); higher = stronger covalent engagement of the cysteine by the compound, active = 1 or more
Details: 500 µM; treatment time 1 h; system: HEK293T cell lysate
Procedure, shortened: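 HEK293T lysate at 2 mg/mL was treated with vehicle or electrophile (500 µM) for 1 h at ambient temperature, then labelled with iodoacetamide alkyne (1 h), clicked to sCIP-TMT reagents, pooled, digested with trypsin overnight at 37 °C, enriched on streptavidin and eluted with acid. Peptides were analysed by Orbitrap Eclipse LC-MS/MS with FAIMS and quantified in FragPipe, using duplicate channels and three replicates, with cysteines quantified in only one replicate excluded. The log2 competition ratio for each cysteine is the mean control-channel reporter intensity divided by the mean compound-channel reporter intensity.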

Row | Target | log2 ratio of iodoacetamide-alkyne labeling
1 | EXOSC10 C73 (UniProt Q01780) | inactive: 0.348
2 | UniProt P62487_C106 | inactive: 0.138
3 | PFKP C112 (UniProt Q01813) | inactive: 0.188
4 | MRPS11 C186 (UniProt P82912) | inactive: 0.527
5 | UniProt P68431_C97 | inactive: -0.0154
6 | UniProt P78527_C1499 | inactive: 0.575
7 | TFAM C246 (UniProt Q00059) | inactive: 0.0252
8 | KIF23 C165 (UniProt Q02241) | inactive: 0.359
9 | OGDH C283 (UniProt Q02218) | inactive: 0.00135
10 | RPL10A C164 (UniProt P62906) | inactive: -0.108
11 | TPM4 C154 (UniProt P67936) | inactive: 0.119
12 | MRPS25 C149 (UniProt P82663) | inactive: 0.0586
13 | SATB1 C529 (UniProt Q01826) | inactive: 0.0361
14 | UniProt P62753_C12 | inactive: 0.196
15 | EXOSC10 C612 (UniProt Q01780) | inactive: 0.262
16 | UniProt P84090_C28 | inactive: -0.256
17 | PFKP C179 (UniProt Q01813) | inactive: 0.179
18 | EEF1A1 C370 (UniProt P68104) | inactive: 0.216
19 | CSNK2B C114 (UniProt P67870) | inactive: -0.0614

Random excerpt: 2 records from the list.
Row | Target | log2 ratio of iodoacetamide-alkyne labeling
5 | UniProt P68431_C97 | inactive: -0.0154
14 | UniProt P62753_C12 | inactive: 0.196

The listing continues.

Row | Target | log2 ratio of iodoacetamide-alkyne labeling
20 | ACTG1 C17 (UniProt P63261) | inactive: 0.00246
21 | UniProt P78527_C223 | inactive: 0.33
22 | UniProt Q02040_C542 | inactive: 0.763
23 | EWSR1 C543 (UniProt Q01844) | inactive: -0.129
24 | UniProt P62701_C181 | inactive: -0.0747
25 | UniProt P63241_C73 | inactive: -0.149
26 | HNRNPU C450 (UniProt Q00839) | inactive: 0.018
27 | CCT2 C535 (UniProt P78371) | inactive: 0.0576
28 | UniProt P62330_C90 | inactive: 0.0463
29 | SORD C301 (UniProt Q00796) | inactive: 0.296
30 | RPS27A C126 (UniProt P62979) | inactive: 0.124
31 | UniProt P62851_C59 | inactive: 0.00851
32 | CNBP C77 (UniProt P62633) | inactive: -0.178
33 | GTF2I C903 (UniProt P78347) | inactive: 0.16
34 | UniProt P68363_C295 | inactive: 0.466
35 | CLTC C870 (UniProt Q00610) | inactive: 0.621
36 | UniProt P78527_C2093 | inactive: 0.236
37 | UniProt P78527_C4106 | inactive: 0.838
